# Among all 52,000 sequences or so, about 210 (0.4%) were called active.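 How the source made its calls: active means gene whose silencing raises cell survival under the drug, median off-target-corrected z-score across its silencing RNAs 2 or more; inactive means the rest.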 Some of the results follow.
# Experiment: Resistance to Poly (ADP-Ribose) Polymerase inhibitor: Gene Identification via Genome-wide siRNA Screen
# Settings: mouse BRCA2 R2336H ES cells, olaparib, CellTiter-Glo viability; stronger effect = higher value
# Procedure, shortened: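 Genome-wide siRNA screen (3 siRNAs/gene, 20 nM) in mouse ES cells carrying hypomorphic BRCA2 R2336H; olaparib 500 nM added 48 h post-transfection, CellTiter-Glo viability 72 h later. Normalized to plate-median negative control; MAD z-scores, gene median, seed-adjusted.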
row,Sequence,z-score
1,GGACUCCAGACUUGAAACATT against Uchl5,inactive: -2.24
2,GCCAAGAGUUUGAUAUAUATT against BC030417,inactive: -0.162
3,GGUAGUGGAUGGGAGCUCATT against Thtpa,inactive: -0.779
4,CGGAAAAGAUCCCUAUUGUTT against Adam5,inactive: -0.0652
5,GCUUUCGGUGGAUUCCUUATT against Rarsl,inactive: 0.437
6,AGCGGACUGAUACAUGAAATT against 2900090M10Rik,inactive: 1.76
7,AGAGUUGUCCAUGUUCCAGTT against Six3,inactive: 0.477
8,CCUAGAGCUGAAGAGAUUATT against Aif1,inactive: 0.206
9,CCAACAACUCUGUAUGCUGTT against Olfr1355,inactive: 1.1
10,GGUGUCUUCAGUUAUAGAUTT against Pard6a,inactive: -0.373
11,CGAACUGCCUUCCUUAAUATT against Hist1h1c,inactive: -0.839
12,GGAAGGACAAAGAAAGCCUTT against Fbxw4,inactive: 0.661
13,GCCAUAUCUGGUCACAUGUTT against 3830402I07Rik,inactive: -0.223
14,GGGUGCUUACAGAAUAUCUTT against 1700025F22Rik,inactive: -0.341
15,GCCUGCACGAUUGGAAUUATT against Aqr,inactive: -0.941
16,GGUGAAUGCUUGUCUGCACTT against Ng23-pending,inactive: 0.218
17,GGAUCUCUACCAUUUGAUUTT against Rps13,inactive: -2.88
18,GGAAGUGACACGAUUUGAGTT against Snx1,inactive: 0.526
19,GGUCAGAAAAAAGUGUAUUTT against A630054L15Rik,inactive: -0.612
20,CGCAGACAGUUUGAGGCUGTT against 1700034P14Rik,inactive: -0.696
21,GGUGGAAUAUAUUGAGUAUTT against BC031748,inactive: -2.41
22,GGGAAAGAUAAAUGUUUCCTT against Gucy1b3,inactive: 3.02
23,GCCUGUGGUGAUUCUCUUGTT against 1110038M16Rik,inactive: -0.344
24,GGGAAGAAGGUUAGCUAAUTT against Trpc6,inactive: 2.16
25,GCUCUACUGCAUCAUUUUATT against Apobec1,inactive: 0.496
26,GGUGCCAACUUAGAGAGCGTT against E430018J23Rik,inactive: -0.301

row,Sequence,z-score
1,GGGUCACGCAUCCUAAGAATT against Blvrb,inactive: 0.505
2,GGAAACCUGCUCAUUGUCGTT against Olfr1233,inactive: -0.862
3,GGCAUCAACAGAAUAACCATT against Tomm34,inactive: -1.3
4,GGCCAGGUAUAAAUAUAUATT against Dusp8,inactive: 0.809
5,GGAGUUUUUGGGUAACCUGTT against Mfge8,inactive: 0.446
6,GGAAUGAGGAAAGAGGAGATT against Rgs17,inactive: -0.118
7,CGAAAAAACAUCAGACCCATT against Sulf1,inactive: 0.253
8,GGUAAAUUCCUUAACUCACTT against Utrn,inactive: 0.938
9,GGGAUGCGGAGGUUUAAGATT against Dhx37,inactive: -1.39
10,GGCAAGCACUCUUUAGACATT against Cd2bp2,inactive: -0.889
11,GCAAAUUAUUGGAUGAUGCTT against 2700085E05Rik,inactive: 0.354
12,GGACUCUUCUUGGUGAUGUTT against Slc22a18,inactive: 0.425
13,GGAUGUUCUACUGCUACACTT against 1810033A06Rik,inactive: 0.098
14,GGAAUUUCAGCCAGUUUCUTT against Sox5,inactive: 0.178
15,GCGAUUUCCAUGUGAAUUCTT against Zfp462,inactive: -0.438
16,CGAACCUGUUGACGGAUUCTT against Wnt1,inactive: 1.48
17,GGAGAAAUUCUUCAAUGAGTT against Syt2,inactive: -0.0649
18,GGAAUAGUGGCUUCUUUUATT against Rshl2,inactive: 0.0767
19,GCGAAGCGAAUCCUUUUUCTT against Fosl2,inactive: -0.682
20,GCAGAUCAAACAGCACUCGTT against 2900090M10Rik,inactive: 0.345
21,GGCAACCAAUCAAAUUGUGTT against Npepps,inactive: -1.55
22,CAAAGCCACCUCGCCCUAUTT against Nkx2-6,inactive: -0.687
23,GGAAAGCACGUCCUCUUUGTT against Gpx5,inactive: -0.49
24,CCUCAGACUACCUUGUGGUTT against Otub1,inactive: 0.849
25,GCAUCUGGUAAAAGGAGCATT against Rpap1,inactive: -0.222
26,GCGAAUCUUUCAUAACAGUTT against AA959742,inactive: 0.838

# Looked up above.
# z-score, GGAGAAAUUCUUCAAUGAGTT against Syt2 reads inactive: -0.0649
# z-score, GGAAACCUGCUCAUUGUCGTT against Olfr1233 reads inactive: -0.862
# z-score, GGAAAGCACGUCCUCUUUGTT against Gpx5 reads inactive: -0.49

# Continued:

row,Sequence,z-score
1,GAUGGAGAAACUGAAGAAGTT against Olfml2a,inactive: -0.0631
2,GGUAACCUGGAUGGAGAAGTT against Mrps24,inactive: -2.39
3,GGUGCUUUGUUAUCCAUAATT against Tnfrsf26,inactive: -0.909
4,GGCUGUGUUCUCAAACAGCTT against St6gal1,inactive: 0.989
5,GGAAAAUCGGUUAUCAUAATT against Pde7a,inactive: -0.3
6,GCCUUACGCACUCUCUAAATT against Col4a2,inactive: 0.0954
7,GCAAGUUAGGCCUUUUAAATT against Cycs,inactive: 1.63
8,GCCCUUACAUUUUAUACUATT against Zfp93,inactive: 0.288
9,GGUGAAUGAGAUGUCGGCCTT against Loh12cr1,inactive: -0.547
10,GGGCAAGAUGAAGAGGAUUTT against Ptdss2,inactive: 0.627
11,GCACUUAUACUACUUAGUUTT against Abca8a,inactive: -0.464
12,CGUAAGGAAGAUAACUUUUTT against Gatm,inactive: 0.48
13,CCAACCACAGGAUCAGAUGTT against 9930111I18Rik,inactive: 0.141
14,GCUGUUCUAAAUCCAAACCTT against A930037J23Rik,inactive: 2.49
15,UCCUGUUCGUUCCUUUCCUTT against Olfr740,inactive: 1.17
16,CGUACUAUAGUAAAUCCAGTT against Clk1,inactive: 0.404
17,CGAACUACUGACCCAGCUUTT against 4833422F24Rik,inactive: -1.96
18,GGCAGAGGCAGACAAGAUUTT against Scg3,inactive: 0.674
19,GCCACGACAACAAAUCCCATT against Lbr,inactive: 0.947
20,GGGAAUGGUUCGAGGAAAATT against Trex1,inactive: 0.218
21,GGAGAAGAAACAAAAACCUTT against Ktn1,inactive: 0.575
22,GGGCUACACAAGUCCCUAUTT against Hoxd13,inactive: 0.836
23,GGUUGAAUCAGGCAUCAUUTT against Sypl,inactive: 1.11
24,CCUUCGUGUUCACUUUAAGTT against Rpl17,inactive: -3.04
25,GGGAAUGCAAGACUUCAAUTT against Cpn1,inactive: 0.223
26,CCAUCAAGCGAUUUGUGGUTT against Rnf103,inactive: 0.653

# Reprinted at random: 3 entries already listed
row,Sequence,z-score
19,GCGAAGCGAAUCCUUUUUCTT against Fosl2,inactive: -0.682
1,GGACUCCAGACUUGAAACATT against Uchl5,inactive: -2.24
3,GGUAGUGGAUGGGAGCUCATT against Thtpa,inactive: -0.779

# Remaining list, next part.

row,Sequence,z-score
1,CCAAGUCAAGUAACCCUUATT against Fgf4,inactive: -0.261
2,GGACACUAUACAAAUUUCGTT against Fank1,inactive: 0.447
3,GGAAAACAGCUUUGAUUGGTT against E130009J12Rik,inactive: 1.42
4,GGGUCGUUGGCAUCAUCAATT against Rps6kl1,inactive: -1.67
5,GGUAAAAAGUUUUGGGAAATT against Pum1,inactive: -1.59
6,GGACGAGAAGAUCAACAUCTT against Rnf30,inactive: -0.455
7,GGCAGAGACACAAGUCACUTT against Adam3,inactive: 1.25
8,GCUGUACGAGCCCUGAUGATT against Cldn18,inactive: -0.96
9,GGUUUUCACUGUGAAUUUGTT against Plscr1,inactive: 0.749
10,GGACUUAACUGGACAAAAUTT against Card12,inactive: -0.0214
11,CGAUGUAUUGUUAUUGCCATT against Lrp10,inactive: 0.189
12,CCCAACAAAUACCACUACATT against Usp20,inactive: 1.63
13,GGACUCAAAAAAGCAACGUTT against Tpbpb,inactive: -1.31
14,CGACCAAUGGGCGUAAUCATT against Obox3,inactive: -1.55
15,GGCUGCUUGGUGUCAUUUUTT against Mrps34,inactive: -0.825
16,GGAGAAAAGAUAUGCUAUGTT against Dip3b,inactive: 1.53
17,GCCUUUAAGAUACUAUCCATT against 4930506D23Rik,inactive: -0.154
18,CGUAUUGUUCUCAAGCUAUTT against 5830458K16Rik,inactive: 0.281
19,GGAAGAAACUGGCUACAAATT against Nudt5,inactive: 0.128
20,CGUCCAUAAGCAGGUGUGUTT against Cops6,inactive: -2.43
21,GGAAAGUAUGUCCAUUCUATT against Tnfrsf1a,inactive: -1.24
22,GGUGAAGAAGAGUCUCAAATT against 3010026O09Rik,inactive: -1.57
23,CGGUAAUGGGUAUCCUUUGTT against Olfr620,inactive: -1.4
24,CCAGCAUGCAUGAACGAGUTT against 2410127L17Rik,inactive: -0.0173
25,GCACAUCUUGGACCGUUUCTT against Lhx3,inactive: -1.79
26,GGUGAAGUUGAAUGGAAGUTT against Zf,inactive: -1.59

# From PubChem BioAssay AID1347423 (Functional Genomics Laboratory (NCATS/FGL), 2020)
